Measurements published in the supplement of paper PMC12823440, “Inhibitors supercharge kinase turnover through native proteolytic circuits” (Nature, 2025).
Structures can show the parent of a compound that is named as a salt. This is one part of the list. The calls rarely recur for the same compound in another form.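 In K562 cells expressing nanoluciferase-fused kinases, luminescence was recorded at 4 h intervals between 2 and 18 h, normalized as percent of control with DMSO at 100% and a positive control at 0%. A significant (2 sigma) signal drop marks a time point as decreased. The authors' rule for a hit is not shown and takes in more than the number of time points.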

Amino acid sequences for entries named in this document (tags omitted). A change or cut given only in a name is not applied to a line headed by its entry.
UniProt P14616: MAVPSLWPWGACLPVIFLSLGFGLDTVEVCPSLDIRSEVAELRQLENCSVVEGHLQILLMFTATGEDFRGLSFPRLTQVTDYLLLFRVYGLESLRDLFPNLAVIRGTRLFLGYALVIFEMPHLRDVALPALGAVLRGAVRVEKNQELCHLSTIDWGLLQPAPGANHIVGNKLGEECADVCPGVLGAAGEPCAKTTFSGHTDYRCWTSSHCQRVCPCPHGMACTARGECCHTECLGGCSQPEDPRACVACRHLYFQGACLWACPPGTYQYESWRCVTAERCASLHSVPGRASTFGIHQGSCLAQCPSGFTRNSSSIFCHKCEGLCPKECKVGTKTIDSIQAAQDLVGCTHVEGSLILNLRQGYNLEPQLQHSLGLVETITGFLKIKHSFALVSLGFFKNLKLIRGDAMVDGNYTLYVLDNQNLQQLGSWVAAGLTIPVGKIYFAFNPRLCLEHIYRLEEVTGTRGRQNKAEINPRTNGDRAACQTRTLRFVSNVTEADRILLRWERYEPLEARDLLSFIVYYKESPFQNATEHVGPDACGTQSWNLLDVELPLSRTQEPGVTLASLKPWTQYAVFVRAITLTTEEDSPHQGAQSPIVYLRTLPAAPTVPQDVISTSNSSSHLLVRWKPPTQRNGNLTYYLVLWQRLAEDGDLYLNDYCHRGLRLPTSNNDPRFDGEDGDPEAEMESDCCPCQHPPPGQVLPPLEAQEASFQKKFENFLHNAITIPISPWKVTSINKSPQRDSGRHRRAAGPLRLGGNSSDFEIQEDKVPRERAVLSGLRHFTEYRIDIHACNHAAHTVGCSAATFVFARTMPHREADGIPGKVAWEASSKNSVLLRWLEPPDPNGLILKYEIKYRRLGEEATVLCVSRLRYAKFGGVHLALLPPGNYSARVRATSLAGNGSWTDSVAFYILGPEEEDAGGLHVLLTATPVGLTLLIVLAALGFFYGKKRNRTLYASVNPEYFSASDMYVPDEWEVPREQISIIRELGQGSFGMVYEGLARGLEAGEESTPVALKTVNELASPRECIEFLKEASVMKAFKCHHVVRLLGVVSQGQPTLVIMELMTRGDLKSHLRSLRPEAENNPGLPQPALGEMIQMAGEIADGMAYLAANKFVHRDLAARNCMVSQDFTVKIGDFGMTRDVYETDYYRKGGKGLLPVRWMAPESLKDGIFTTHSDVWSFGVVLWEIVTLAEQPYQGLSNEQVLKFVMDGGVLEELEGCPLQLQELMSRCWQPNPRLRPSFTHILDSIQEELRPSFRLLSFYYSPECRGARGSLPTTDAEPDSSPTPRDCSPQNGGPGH

Molecular target: INSRR (UniProt P14616)
Assay: number of time points (of 5) at which kinase-Nluc abundance scored as decreased, DMSO-normalised (count); higher = more persistent destabilization
Settings: K562; 2-18 h

Structure (SMILES)	number of time points
C=C(CCC=C(C)C)[C@H]1CC[C@]2(C)[C@@H]1[C@H](O)C[C@@H]1[C@@]3(C)CC[C@H](O[C@@H]4O[C@H](CO)[C@@H](O)[C@H](O)[C@H]4O[C@@H]4O[C@H](CO)[C@@H](O)[C@H](O)[C@H]4O)C(C)(C)[C@@H]3CC[C@]12C [Ginsenoside Rk1] (10 µM)	0
CCn1c(=O)c(-c2ccc(-c3cncs3)cc2Cl)cc2cnc(Nc3ccc(N4CCN(C)CC4)cc3)nc21 (2.5 µM)	0
Nc1nccc(Oc2ccc(NC(=O)c3cn(COP(=O)(O)O)cc(-c4ccc(F)cc4)c3=O)cc2F)c1Cl (10 µM)	0
Cc1cc(-c2cc(OC(=O)c3ccccc3)ccc2Cl)cc2nnc(Nc3ccc(OCCN4CCCC4)cc3)nc12 (0.5 µM)	0
OC[C@H]1O[C@@H](Oc2cc3c(O)cc(O)cc3[o+]c2-c2cc(O)c(O)c(O)c2)[C@H](O)[C@@H](O)[C@@H]1O [Delphinidin 3-glucoside (chloride)] (10 µM)	0
O=C(/C=C/c1ccc(O)c(O)c1)c1ccc(O[C@@H]2O[C@H](CO)[C@@H](O)[C@H](O)[C@H]2O)c(O)c1O [Marein] (10 µM)	0
O=C1Nc2nc(-c3c(O)cccc3OCC3CC3)cc([C@@H]3CCCNC3)c2CO1 [Bay 65-1942 (hydrochloride)] (10 µM)	0
CC(C)CN(CC(=O)N1CCN(CC(OCc2ccc3ccccc3c2)c2ccc(Cl)cc2Cl)CC1)CC(C)C (centres undefined) [LYN-1604 (dihydrochloride)] (2.5 µM)	0
CCc1cc(O)c(F)cc1-c1ccc2c(-c3nc4c([nH]3)CN(C3CCN(C)CC3)CC4)n[nH]c2c1 [JAK-IN-5 (hydrochloride)] (2 µM)	2
Cc1ccc(Nc2cc(-c3cccc(N4C(=O)c5ccccc5C4=O)c3)ncn2)cc1NS(C)(=O)=O (10 µM)	0
C=C1C(=O)O[C@@H]2C[C@@]3(C)CCC[C@H](C)C3=C[C@H]12 [Alantolactone] (10 µM)	0
C=C(C)C(=O)Nc1cccc(-c2ncnc3[nH]cc(C(=O)OCC)c23)c1 (10 µM)	0
CNc1nc(Nc2cnn(C3CCN(C4COC4)CC3F)c2Cl)ncc1C(F)(F)F (centres undefined) (10 µM)	0
Cc1cc(Nc2cc(Cl)nc(Oc3ccc([N+](=O)[O-])cc3)n2)n[nH]1 [Autophinib] (2.5 µM)	0
CC(C)=CC[C@H](O)C1=CC(=O)c2c(O)ccc(O)c2C1=O [(-)-Alkannin] (2.5 µM)	0
CNCc1ccccc1-c1csc([C@@H](C)Nc2nc(C)nc3cc(OC)c(OC)cc23)c1 (2.5 µM)	0
COc1ncc(-c2nc(N3CCOCC3)nc3c(CN4CCC(C(C)(C)O)CC4)cc(F)cc23)cc1NS(C)(=O)=O [Linperlisib] (10 µM)	0
O=C(Nc1ccc(F)cc1F)[C@H](NC(=S)Nc1cc(C(F)(F)F)cc(C(F)(F)F)c1)c1ccccc1 (2.5 µM)	0
O=C1NC(=O)C(=Cc2ccc(-c3ccc(F)cc3)o2)S1 (stereo in doubt) (10 µM)	0
CCOc1cc(C(=O)N2CCC(N3CCN(C)CC3)CC2)ccc1Nc1ncc2c(n1)N(C1CCCC1)c1ccccc1C(=O)N2C (10 µM)	1

Taken from above for reference:
Structure (SMILES)	number of time points
OC[C@H]1O[C@@H](Oc2cc3c(O)cc(O)cc3[o+]c2-c2cc(O)c(O)c(O)c2)[C@H](O)[C@@H](O)[C@@H]1O [Delphinidin 3-glucoside (chloride)] (10 µM)	0
O=C(/C=C/c1ccc(O)c(O)c1)c1ccc(O[C@@H]2O[C@H](CO)[C@@H](O)[C@H](O)[C@H]2O)c(O)c1O [Marein] (10 µM)	0
O=C1Nc2nc(-c3c(O)cccc3OCC3CC3)cc([C@@H]3CCCNC3)c2CO1 [Bay 65-1942 (hydrochloride)] (10 µM)	0
CC(C)CN(CC(=O)N1CCN(CC(OCc2ccc3ccccc3c2)c2ccc(Cl)cc2Cl)CC1)CC(C)C (centres undefined) [LYN-1604 (dihydrochloride)] (2.5 µM)	0
CCc1cc(O)c(F)cc1-c1ccc2c(-c3nc4c([nH]3)CN(C3CCN(C)CC3)CC4)n[nH]c2c1 [JAK-IN-5 (hydrochloride)] (2 µM)	2
Cc1ccc(Nc2cc(-c3cccc(N4C(=O)c5ccccc5C4=O)c3)ncn2)cc1NS(C)(=O)=O (10 µM)	0
C=C1C(=O)O[C@@H]2C[C@@]3(C)CCC[C@H](C)C3=C[C@H]12 [Alantolactone] (10 µM)	0
C=C(C)C(=O)Nc1cccc(-c2ncnc3[nH]cc(C(=O)OCC)c23)c1 (10 µM)	0

Further records follow.

Structure (SMILES)	number of time points
OC(COc1ccc(C(F)(F)F)cc1)CN(Cc1ccccc1)Cc1ccccc1 (centres undefined) (2.5 µM)	0
C[C@@H]1C(=O)O[C@H](C)[C@H]1C[C@@H](O)[C@](C)(O)[C@H]1CC[C@@]2(O)C3=CC(=O)[C@@H]4C[C@@H](O)[C@@H](O)C[C@]4(C)[C@H]3CC[C@]12C [Cyasterone] (10 µM)	0
Cc1c(CN2CCN(C(=O)[C@H](C)O)CC2)sc2c(N3CCOCC3)nc(-c3cnc(N)nc3)nc12 [Apitolisib] (10 µM)	1
CC(C)(C)NC(=O)c1cncn1C1CCN(c2ccc(-c3nnc(C(F)(F)F)o3)cn2)CC1 (10 µM)	0
NCc1ccc(Nc2ncc(F)c(Nc3ccccc3)n2)cc1 (10 µM)	0
COC1(c2sc3c(N4CCOCC4)nc(-c4cnc(N)nc4)nc3c2C)COC1 (2.5 µM)	0
COc1cc2c[n+](C)c3c4cc5c(cc4ccc3c2cc1OC)OCO5 [Nitidine (chloride)] (2 µM)	0
N#Cc1ccc2ncnc(NC3CCC(N4CCOCC4)CC3)c2c1 (centres undefined) (10 µM)	0
COc1ccc2c(c1O)OC(C)(C)c1c-2ccc2c1C(=O)N(c1ccc(C(=O)c3ccccc3)cc1)C2=O [Ampkinone] (10 µM)	0
CC1=C2C(=O)O[C@@H](c3ccoc3)[C@]2(C)CCC1 [Fraxinellone] (10 µM)	0
CS(=O)(=O)c1ccc(-c2cnc(N)c(C(=O)Nc3ccccc3)n2)cc1 (10 µM)	0
O=C(NC(NC(=S)Nc1ccc(F)c([N+](=O)[O-])c1)C(Cl)(Cl)Cl)C(c1ccccc1)c1ccccc1 (centres undefined) (10 µM)	0
COc1cc(C(N)=O)nc(-c2cccc(C#C[C@]3(O)CCN(C)C3=O)c2)c1 (10 µM)	0
O=C(Nc1cc(Oc2cc(F)c(NC(=O)C3(C(=O)Nc4ccc(F)cc4)CC3)cc2F)ccn1)C1CC1 [Altiratinib] (10 µM)	0
COc1ccc(Cl)cc1NC(=O)Nc1cc(C)nc2ccccc12 (2.5 µM)	0
COc1ccc(CC(=O)Nc2nc3c(s2)CCc2ccccc2-3)cc1OC (10 µM)	0
N[C@H](Cc1c[nH]c2ccccc12)C(=O)N/N=C/c1ccc2nccnc2c1 [Rhosin (hydrochloride)] (10 µM)	0
CC(C)(C)c1ccc(S(=O)(=O)Nc2ccc(-n3ccnc3)cc2)cc1 (10 µM)	0
Cc1ccc(-c2c(C(=O)CF)n(CCCO)c3ncnc(N)c23)cc1 (10 µM)	0
